Results are given in words; binding and its absence hold for the method and conditions named. Some entries that bind do so weakly or less than the wild type.

Chains of the proteins cited; added tags and fusions are not shown. Lines headed by an entry give the natural chain unless they say otherwise; changes in a name come on top.
UniProt P00746: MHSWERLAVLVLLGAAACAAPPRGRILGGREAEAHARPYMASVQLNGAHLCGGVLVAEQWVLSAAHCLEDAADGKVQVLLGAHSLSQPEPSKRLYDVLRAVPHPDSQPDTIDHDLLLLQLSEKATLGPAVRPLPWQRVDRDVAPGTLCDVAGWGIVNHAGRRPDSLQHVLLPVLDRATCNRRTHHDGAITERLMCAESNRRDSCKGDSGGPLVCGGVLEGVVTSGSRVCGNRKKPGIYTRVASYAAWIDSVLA

In this assay the target is recombinant human CFD mutant 1 (R157A, R207A), His-tagged (human) (UniProt P00746). As to the kind of experiment: ELISA, Mut1 Binding. A general note: In an ELISA, binding on a coated surface is turned into a signal by an enzyme label.

B1: KCD047 (antibody, V domains shown)
VH: EVQLQQSGAEFVKPGASVRLSCTASGFNIKDTYMHWVKQRPEQGLEWIGRIDPANGYTKDDPKFQGKATITADTSSNTAYLQLSSLTSEDTAVYYCASAMDYWGQGTSVTVSS
VL: QIVLTQSPAVMSASPGEKVAMTCSASSSVTYMYWYQQKPGSSPRLLIYDTSNLASGVPVRFSGSGSGTSYSLTISRMEAEDAATYYCQQWSTYPFPFGSGTKLEIK
In the case of B1, the binding result is reported as “binds”.

B2: KCD214 (antibody, V domains shown)
VH: EVQLQQSVAEFVRPGASVKLSCTASGFNIKNTYMHWVKQRPEQGLEWIGRIDPANGNTEYAPKFQGKATITADTSSNTAYLQLSSLTSEDTAIYYCALYDYDGYWGQGTTLTVSS
VL: EIVLTQSPALMAASPGEKVTITCRVSSSISSSSLHWYQQKSGTSPKPWIYGTSNLASGVPVRFSGSRSGTSYSLTISSMEAEDAATYYCQQWSDYPWTFGGGTKLEIK
Turning to B2, the binding result was “binds”.

The record behind these values is patent US20180334496A1.
